B1: il10ra_site1_sap_11_mot_2c1a291787c6f40772924d4e9068d803_0001_af2_000000222_0001_34_48_H_._HHH_b1_06580_af2_0001_0000500013_0000001_0_0001 (protein)
chain: SSSSDQQEELLEALARLIEQALEAGNPEQARRLIEALKLNAERLGDEEAREIVEELERLVNSSSS
B2: il10ra_site1_sap_23_mot_HHH_b1_06994_000000193_0001_40_55_H_._HHH_b2_01485_0001_0000300021_0000002_0_0001_af2pred_0001 (protein)
chain: SSSSSIREKIIELLFKAIELYANGNPEEAERLIEEAQELAEELGDPELEEAIERVERQVKSSSSS
B3: il10ra_site1_sap_24_mot_HHH_b2_03220_af2_000000223_0001_23_40_H_._HHH_b2_04722_0001_0000200012_0000001_0_0001_af2pred_0001 (protein)
chain: SSSSDEEERLAELLFEAIKRLIELGDEERARLALKALRHTAEATNDPHARELVEELEELLSSSSS
B4: il10ra_site1_sap_25_mot_HHH_b1_03314_af2_000000278_0001_42_55_H_._HHH_b2_06475_0001_0000100004_0000001_1_0001_af2pred_0001 (protein)
chain: SSSDEEVRKEVEELLEEIEELEEEDDERRMAELALKIFKLALRTGDPKVTELLEKAIELARSSSS
B5: il10ra_site1_normal_mot_HHH_b1_05185_000000011_0001_22_39_H_._HHH_b1_02309_0001_0000300043_0000001_0 (protein)
chain: SSSSSSDAEEYLELAIKFAKRVDEETARRLLRIAEQLARRHNDEELLKEIEELLEEVESSSSSSS
B6: il10ra_site1_normal_mot_HHH_b2_06979_000000158_0001_42_57_H_._HHH_b2_06735_af2_0001_0000100004_0000001_0 (protein)
chain: SSSSDAELAQEAIRIIREAVELFRNGNPEEARRLLEELREELEEAGNRLLLLNVEYLLRDLSSSS
B7: il10ra_site1_sap_19_mot_HHH_b2_02463_af2_000000222_0001_1_19_H_._HHH_b2_00103_af2_0001_0000200019_0000001_0_0001 (protein)
chain: SSSSSSSAERSVELTLKAAKQIEDEEYVRMALRFARWIAEWTNNEELRELVEKLEEELSSSSSSS
B8: il10ra_site1_sap_26_mot_HHH_b2_03039_af2_000000183_0001_1_19_H_._HHH_b2_03047_0001_0000200011_0000002_0_0001_af2pred_0001 (protein)
chain: SSSSSREAAEEAIRLSRRIIELAAEGNPEEAEKLLEEVQRLVEETKDPFVKFILELLERILSSSS
B9: il10ra_site1_sap_23_mot_HHH_b1_08133_000000195_0001_1_19_H_._HHH_b2_03796_0001_0000200017_0000001_1_0001 (protein)
chain: SSSSDEAYRLVEEAIEEALKLWRNGNPEEAQELIEEVIERLRELGNWAAVWAAEHVLRVLRSSSS
B10: il10ra_site1_normal_mot_HHH_b1_02997_000000220_0001_39_52_H_._HHH_b1_03964_0001_0000100002_0000001_1_af2pred_0001 (protein)
chain: SSSSDEEVREAIEILRRAAELHSNGNPEEAEELLERAEELAERAGNLLLLVAIRFLLKLVRSSSS

Some of the results follow.

For the assay, the target named is il10ra, Q13651. The experiment in a line: yeast display titration.
With B1, the “apparent Kd” value is “inactive: no binding seen”. As for B2, the entry is “inactive: no binding seen”; as for B3, “inactive: no binding seen”. Regarding B4, the “apparent Kd” value was “inactive: no binding seen”. As for B5, the entry is “inactive: no binding seen”; as for B6, “inactive: no binding seen”. As for B7, the entry is “inactive: no binding seen”; as for B8, “inactive: no binding seen”. With B9 the entry was “inactive: no binding seen”; with B10, “inactive: no binding seen”.

Values taken from article PMC10163288.
